Data reported in PMC12147715.

B1: Ccdc13 (1–300) (domain or fragment, UniProt D3YV10 1-300)
chain: MAADESSADTLRLQFKAMQELQHRRLQKQMEKKREKELSCQSKADNQEGFMVIPDGLSLLDTEEQNLKNIFEKRVLEDEIQHLRSELRETVDENGRLYKLLKERDFEIKHLKKKIEEDRFAFTGASGMAGDLVATKIVELSKKNRGLMAESESAKVRIKQLTNRIQELEHQLQMASAKPPSKGATDAGAKPLKTQTGDRALLETPEVKALQDRLAATNLKMSDLRNQIQSAKQELRVAQKVLANEVGEDVNIQQLLASPGTWRGRAQQILVLQSRVRDLEKQLGQRQNKPAGSSSSEVPL
B2: Mouse Ccdc13 expressed in HEK293T cells (protein, UniProt D3YV10 1-709)
chain: MAADESSADTLRLQFKAMQELQHRRLQKQMEKKREKELSCQSKADNQEGFMVIPDGLSLLDTEEQNLKNIFEKRVLEDEIQHLRSELRETVDENGRLYKLLKERDFEIKHLKKKIEEDRFAFTGASGMAGDLVATKIVELSKKNRGLMAESESAKVRIKQLTNRIQELEHQLQMASAKPPSKGATDAGAKPLKTQTGDRALLETPEVKALQDRLAATNLKMSDLRNQIQSAKQELRVAQKVLANEVGEDVNIQQLLASPGTWRGRAQQILVLQSRVRDLEKQLGQRQNKPAGSSSSEVPLSSDSRKMTAQEKNLLRIRSLERDKQESWEKLASERDTLQTELEELRKKFEGMRSRNKVLSSEVKTLRSQMTTLVEKGRHDDELIDALMDQLKQLQDILSSLSVQEESRRTSQQHLDQKVNSEAQRSSSLVAQLRAMVADREAKVRQLELEIGQLSVQYLHGKGGGEGASPADARFPEDQTPITNSPASAGDHVGRLGSSRSVTSLGHTLVESALTRPSLPSPHGTSPRFSDSPEQKGWQAQAAEMKALWQAAEVERDRLNEFVTVLQKRVEESSSKLLEAERRLQEERQRAVLLEQHLEKMRLEPSRASVSQKTKNKPGPPAANTKPNSAGSAKKDSSSTQLCDMPMESQIQELNARLAIQMEENGILRDALGSALRGKEEDFRMYHQTLGQVKGVFLQALRQQKANKQ

Legend:
[1] = biological target: Microtubules (MTs) polymerized in vitro; assay: co-sedimentation; MT-pelleting assay with Taxol-stabilized MTs; pellet and supernatant fractions; both purified
[2] = biological target: GFP–Spef1 N-terminal truncation (CH domain, mouse) (mouse); assay: co-IP; proteins transiently expressed in HEK293T cells, then co-immunoprecipitation
[3] = biological target: GFP–Spef1 C-terminal truncation (CC domain, mouse) (mouse); assay: as above

Binder	binding [1]	binding [2]	binding [3]
B1	binds		
B2		no binding	binds

No constants are given. Whether binding was seen depends on the method and setting. For part of these data: A result given as binding can be weak or reduced; the word gives no strength. For part of these data: In cells and extracts the contact can be indirect.
